PubChem BioAssay AID1224830 – NIAID – 2016
Here is one part, drawn at random, of about 18,000 deposited reagents. About 2,900 of all reagents (16%) count as active. 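Calls are made per well; low scores hint the gene aids the LPS response, high scores that it dampens it.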 Repeated entries: four replicate wells of each siRNA pool. No sequences are given here.

- Test: 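Genes whose knock-down alters the TNF-alpha reporter response to LPS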 (primary screen)
- Cell system: human THP-1 monocytic leukaemia cells, TNF dual-luciferase reporter clone, PMA-differentiated to macrophage-like cells
- Knock-down reagent: siRNA pool against human genes, 50 nM
- Time to read-out: LPS for 4 h, given about 3 days after siRNA transfection
- Treatment: bacterial LPS (TLR4 ligand), 10 ng/ml
- Measured: 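Ratio of firefly to renilla light, scaled to the plate median and expressed as a robust z-score per replicate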
- Scale: TNF reporter robust z-score: higher = stronger TNF reporter response to LPS
- Active means: 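a well is active when its z-score exceeds 2.8 or falls below -1.5; control wells carry no call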

target | TNF reporter robust z-score | Call
CSTPP1 (GeneID 79096) | -0.09 | inactive
CSTPP1 (GeneID 79096) | 0.18 | inactive
CSTPP1 (GeneID 79096) | 1.97 | inactive
CSTPP1 (GeneID 79096) | -0.73 | inactive
FLACC1 (GeneID 130540) | -0.31 | inactive
FLACC1 (GeneID 130540) | 0.31 | inactive
FLACC1 (GeneID 130540) | 1.84 | inactive
FLACC1 (GeneID 130540) | 0.55 | inactive
STC2 (GeneID 8614) | 0.71 | inactive
STC2 (GeneID 8614) | 1.21 | inactive
STC2 (GeneID 8614) | 0.85 | inactive
STC2 (GeneID 8614) | 0.57 | inactive
MB (GeneID 4151) | -0.67 | inactive
MB (GeneID 4151) | -0.44 | inactive
MB (GeneID 4151) | -0.38 | inactive
MB (GeneID 4151) | 0.13 | inactive
CCHCR1 (GeneID 54535) | 2.37 | inactive
CCHCR1 (GeneID 54535) | 3.41 | active
CCHCR1 (GeneID 54535) | 2.3 | inactive
WDR5B (GeneID 54554) | -1.81 | active
WDR5B (GeneID 54554) | -1.17 | inactive
WDR5B (GeneID 54554) | -1.45 | inactive
WDR5B (GeneID 54554) | -1.47 | inactive
CUTA (GeneID 51596) | -1.01 | inactive
CUTA (GeneID 51596) | -0.85 | inactive
CUTA (GeneID 51596) | -0.23 | inactive
CUTA (GeneID 51596) | 0 | inactive
EFCAB7 (GeneID 84455) | 1.29 | inactive
EFCAB7 (GeneID 84455) | 1.5 | inactive
EFCAB7 (GeneID 84455) | 0.34 | inactive
EFCAB7 (GeneID 84455) | 0.13 | inactive
SLFN13 (GeneID 146857) | 0.96 | inactive
SLFN13 (GeneID 146857) | 0.33 | inactive
SLFN13 (GeneID 146857) | 0.85 | inactive
IMPDH2 (GeneID 3615) | -0.81 | inactive
IMPDH2 (GeneID 3615) | 1.24 | inactive
IMPDH2 (GeneID 3615) | 1.83 | inactive
IMPDH2 (GeneID 3615) | 0.02 | inactive
N4BP2 (GeneID 55728) | 0.53 | inactive
N4BP2 (GeneID 55728) | 0.78 | inactive
N4BP2 (GeneID 55728) | 0.03 | inactive
N4BP2 (GeneID 55728) | 1.95 | inactive
ENY2 (GeneID 56943) | 2.47 | inactive
ENY2 (GeneID 56943) | 1.4 | inactive
ENY2 (GeneID 56943) | 0.41 | inactive
ENY2 (GeneID 56943) | 0.38 | inactive
RGS22 (GeneID 26166) | 1.68 | inactive
RGS22 (GeneID 26166) | 1.75 | inactive
RGS22 (GeneID 26166) | 0.87 | inactive
RGS22 (GeneID 26166) | -1.02 | inactive
EIF4EBP1 (GeneID 1978) | -0.75 | inactive
EIF4EBP1 (GeneID 1978) | -0.68 | inactive
EIF4EBP1 (GeneID 1978) | -1.18 | inactive
EIF4EBP1 (GeneID 1978) | -0.57 | inactive
LPA (GeneID 4018) | -0.49 | inactive
LPA (GeneID 4018) | 0.97 | inactive
LPA (GeneID 4018) | -0.71 | inactive
LPA (GeneID 4018) | 1.42 | inactive
JPT2 (GeneID 90861) | 0.43 | inactive
JPT2 (GeneID 90861) | -0.35 | inactive
JPT2 (GeneID 90861) | 0.88 | inactive
JPT2 (GeneID 90861) | 0.63 | inactive
PIP4K2A (GeneID 5305) | 0.38 | inactive
PIP4K2A (GeneID 5305) | 0.54 | inactive
PIP4K2A (GeneID 5305) | 0.46 | inactive
PIP4K2A (GeneID 5305) | 0.07 | inactive
APH1A (GeneID 51107) | -0.45 | inactive
APH1A (GeneID 51107) | -1.24 | inactive
APH1A (GeneID 51107) | -1.79 | active
APH1A (GeneID 51107) | -1.36 | inactive

18 entries already listed, ordered by “TNF reporter robust z-score”, highest first.
target | TNF reporter robust z-score | Call
LPA (GeneID 4018) | 1.42 | inactive
LPA (GeneID 4018) | 0.97 | inactive
JPT2 (GeneID 90861) | 0.88 | inactive
RGS22 (GeneID 26166) | 0.87 | inactive
JPT2 (GeneID 90861) | 0.63 | inactive
PIP4K2A (GeneID 5305) | 0.54 | inactive
PIP4K2A (GeneID 5305) | 0.46 | inactive
JPT2 (GeneID 90861) | 0.43 | inactive
PIP4K2A (GeneID 5305) | 0.38 | inactive
PIP4K2A (GeneID 5305) | 0.07 | inactive
JPT2 (GeneID 90861) | -0.35 | inactive
LPA (GeneID 4018) | -0.49 | inactive
EIF4EBP1 (GeneID 1978) | -0.57 | inactive
EIF4EBP1 (GeneID 1978) | -0.68 | inactive
LPA (GeneID 4018) | -0.71 | inactive
EIF4EBP1 (GeneID 1978) | -0.75 | inactive
RGS22 (GeneID 26166) | -1.02 | inactive
EIF4EBP1 (GeneID 1978) | -1.18 | inactive

The listing continues:
target | TNF reporter robust z-score | Call
CHRD (GeneID 8646) | -0.17 | inactive
CHRD (GeneID 8646) | 0.32 | inactive
CHRD (GeneID 8646) | 1.12 | inactive
CHRD (GeneID 8646) | 0.37 | inactive
MOCS2 (GeneID 4338) | 0.37 | inactive
MOCS2 (GeneID 4338) | -0.64 | inactive
MOCS2 (GeneID 4338) | 0.23 | inactive
MOCS2 (GeneID 4338) | 0.85 | inactive
TPGS2 (GeneID 25941) | 3.22 | active
TPGS2 (GeneID 25941) | 2.98 | active
TPGS2 (GeneID 25941) | 0.23 | inactive
TPGS2 (GeneID 25941) | -0.54 | inactive
PRY2 (GeneID 442862) | 0.48 | inactive
PRY2 (GeneID 442862) | 0.28 | inactive
PRY2 (GeneID 442862) | 0.3 | inactive
PRY2 (GeneID 442862) | 0.32 | inactive
TRPV5 (GeneID 56302) | 0.93 | inactive
TRPV5 (GeneID 56302) | -0.92 | inactive
TRPV5 (GeneID 56302) | -1.35 | inactive
TRPV5 (GeneID 56302) | -0.51 | inactive
AARS2 (GeneID 57505) | -0.13 | inactive
AARS2 (GeneID 57505) | -0.37 | inactive
AARS2 (GeneID 57505) | 0.5 | inactive
AARS2 (GeneID 57505) | 0.09 | inactive
NHERF1 (GeneID 9368) | 0.62 | inactive
NHERF1 (GeneID 9368) | -0.01 | inactive
NHERF1 (GeneID 9368) | -0.02 | inactive
NHERF1 (GeneID 9368) | 1.36 | inactive
KIAA2013 (GeneID 90231) | -0.1 | inactive
KIAA2013 (GeneID 90231) | -0.72 | inactive
KIAA2013 (GeneID 90231) | -1.2 | inactive
KIAA2013 (GeneID 90231) | -0.47 | inactive
POU5F2 (GeneID 134187) | -1.12 | inactive
POU5F2 (GeneID 134187) | 0.41 | inactive
POU5F2 (GeneID 134187) | -0.2 | inactive
POU5F2 (GeneID 134187) | 0.05 | inactive
TGIF2LX (GeneID 90316) | -0.49 | inactive
TGIF2LX (GeneID 90316) | 0.89 | inactive
TGIF2LX (GeneID 90316) | -0.22 | inactive
TGIF2LX (GeneID 90316) | -0.27 | inactive
